Laboratory results: PubChem BioAssay AID743402 (Broad Institute, 2014)
About 140 (12%) of roughly 1,200 compounds were called active.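 The calls were made as follows: active = fitted curve falls past -35% activity change at a dose under twice the top valid dose, in every replicate test; inconclusive = replicate tests disagree on the call; inactive = the rest, including activity in the opposite direction.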 Most of the strongest results are missing from this list.

test: restoration of mutant CFTR halide transport – FRT cells, YFP quenching, cherry-pick, dose response (AID 743402); settings: FRT CFTR-F508del YFP iodide quenching, 24 h, channel opened with forskolin and a potentiator; at 26 µM (top of the series) unless noted;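 also: compounds act as correctors raising surface CFTR-F508del before acute activation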

Activity change, negative = more quenching (active), inactive:
COC(=O)/C=C/c1ccccc1S(=O)(=O)N(Cc1ccccc1)Cc1ccco1 6.25%, CC1CN(S(=O)(=O)c2cccc(C(=O)Nc3cc(Cl)ccc3N3CCOCC3)c2)CC(C)O1 (stereo unspecified) 0%, C[C@@H]1CN([C@H](C)CO)S(=O)(=O)c2ccc(C#Cc3ccccc3F)cc2O[C@H]1CN(C)C(=O)Cc1cccnc1 16.5%, CCS(=O)(=O)N1CC(=O)N2[C@H](CO)[C@@H](c3ccc(C#CCC(C)C)cc3)[C@@H]2C1 -9.82%, Cc1cccc(N2CCN(C(=O)c3ccc4[nH]c(C)c(C)c4c3)CC2)c1C -6.67%, O=CNc1cc(-c2ccc(C(=O)NC3CC3)cc2)cn2c(-c3ccccc3)cnc12 9.58%, NS(=O)(=O)c1ccc(CCNc2nn3c(-c4cccc(OC(F)(F)F)c4)cnc3s2)cc1 3.33%, Cc1ccc(CNC(=O)COC(=O)c2ccc(S(=O)(=O)N(C)C)cc2)cc1 -13.1%, CC(Oc1ccccc1Cl)C(=O)Nc1ccc(S(=O)(=O)Nc2nccs2)cc1 (stereo unspecified) -3.85%, Cc1ccc(S(=O)(=O)NCc2ccccc2)cc1C(=O)N1CC(C)CC(C)C1 (stereo unspecified) 19.4%, CC(=O)NC(c1ccc2ccccc2c1)c1ccc2cccnc2c1O (stereo unspecified) -3.85%, O=C(CSC1=NCCN1)Nc1cccc([N+](=O)[O-])c1 0%, O=C(Cc1ccccn1)NCC[C@@H]1CC[C@H](NC(=O)Nc2ccc(C(F)(F)F)cc2)[C@H](CO)O1 14.3%, COc1cccc(NC(=O)N(C)C[C@H]2OCc3ccccc3-c3c(n(C)c4ccccc34)C(=O)N([C@H](C)CO)C[C@H]2C)c1 27.4%, COc1ccc(CNC(=O)c2cc3c(c(-c4cccc(-c5ccc(C#N)cc5)c4)n2)[C@@H](CCO)N([S@](=O)C(C)(C)C)C3)cc1 19.3% [at 23.5 µM], CC(C)C[C@H](NC(=O)c1nc[nH]c1C(=O)N1CCN(C(=O)OC(C)(C)C)CC1)C(=O)OC(C)(C)C -3.33%, COc1cccc(C(=O)Nc2sc3c(c2C#N)CCN(C(C)=O)C3)c1 12.7%, O=C(CCc1ccccc1)NCC(c1ccco1)N1CCc2ccccc21 (stereo unspecified) -6.46%, CCCCNC(=O)C(=O)Nc1ccc2c(c1)N(S(=O)(=O)c1cccs1)CCC2 6.25%, COc1ccc(OCC(=O)N/N=C/C=C/c2ccccc2)cc1 0.208%, COc1ccc2c(c1)[nH]c1c(=O)n(/N=C/c3ccc(OC)c(CN4CCCC4)c3)cnc12 -3.33%, Cc1noc(C)c1NC(=O)N(C)C[C@H]1Oc2cc(C#CCC3CCCC3)ccc2S(=O)(=O)N([C@@H](C)CO)C[C@@H]1C -1.85%, C[C@H]1CN([C@@H](C)CO)S(=O)(=O)c2ccc(C3=CCCCC3)cc2O[C@@H]1CN(C)C(=O)Cc1ccncc1 -3.57%, C/C=C/c1ccc([C@H]2[C@@H](CO)N(C(=O)COC)[C@@H]2CNC(=O)CC)cc1 15.8% [at 23.5 µM], CC[N+]1(CC)CC2=Cc3ccccc3CC2C1 (stereo unspecified) 0%, COc1ccc(NCC(=O)n2c(C)c(C)c3ccccc32)cc1 19.9%, CCOc1ccc(NC(=O)c2cc(OC)nc3ccccc23)cc1 -6.67%, COC(=O)c1ccc(CS(=O)(=O)c2ccc(F)cc2)o1 3.12%, CCOc1cc(OCC)c(C(C)=O)cc1OCC 14.3%, COc1ccc(NC(=O)C2CCCN2C(=O)Nc2cccc(F)c2)cc1 (stereo unspecified) 9.58%, COCCNC(=O)c1cc(-c2ccc(-c3ccccc3)cc2)nc2ccccc12 6.7%, Cc1cccc(OCCNC(=O)c2ccc(Cl)c(S(=O)(=O)NCc3cccnc3)c2)c1 6.25%, C[C@H]1CN([C@@H](C)CO)C(=O)Cc2cc(NC(=O)Nc3ccc(C(F)(F)F)cc3)ccc2O[C@H]1CN(C)S(=O)(=O)c1ccccc1 7.14%, COc1ccc(-c2ccnc(-c3ccc(O)cc3)n2)cc1 -26.7%, COc1ccc(NC(=O)c2nc(C)c(C3(C)CC(c4cccnc4)=NO3)s2)cc1 (stereo unspecified) -3.33%, COc1ccc(C(=O)OCc2nc(N)nc(Nc3ccccc3C)n2)cc1OC -3.33%, CN(CC(=O)NCCc1ccc(S(N)(=O)=O)cc1)CC(=O)Nc1ccc(Cl)c(C(F)(F)F)c1 1.61%, CC1Cc2nc(SCC(=O)N3CCOCC3)n(-c3ccccc3)c(=O)c2S1 (stereo unspecified) 3.12%, O=C1NN(c2cccc(Br)c2)C(=O)/C1=C\c1ccc(O)cc1 12.7%, Cc1cccc(N2CCN(S(=O)(=O)c3cc(-c4cc(C)no4)ccc3C)CC2C)c1 (stereo unspecified) -1.61%, COc1cc(C2CC(=O)N(c3ccc(C)cc3)C(=O)C2)cc(OC)c1OC 0%, COc1ccc2c3c([nH]c2c1)[C@H](CO)N(C(=O)Nc1ccc(F)cc1)CC31CCN(S(=O)(=O)c2ccccc2)CC1 5.05%, Cc1ccc(NC(=O)c2c(C)noc2C)cc1S(=O)(=O)N1CCOCC1 10%, O=C(Nc1ccc(OC(F)(F)F)cc1)c1ccc2c(c1)no[n+]2[O-] 22.7%, CC(C)CCNC(=O)C(=O)Nc1ccc2c(c1)N(S(=O)(=O)c1cccs1)CCC2 14.7%, C=CC(C)(C)c1[nH]cnc1/C=C1\NC(=O)C(C(C)C)NC1=O (stereo unspecified) 13.3%, C/C(=N\NC(=O)c1cc(-c2cccs2)nc2ccccc12)c1ccccn1 16%, O=c1[nH]c(CN2CCN(c3ccc(O)cc3)CC2)nc2scc(-c3ccc(Cl)cc3)c12 19.6%, O=S1(=O)c2ccc(Br)cc2N2CCC[C@H]2CN1Cc1ccccc1 -23.3%, COC(=O)c1ccc(/C=C/c2c(-c3ccc(OC)cc3)oc3ccc(N4CCOCC4)cc23)cc1 -18.8%, CC(=O)Nc1ccc(NC(=O)COc2cccc3c2OC(C)(C)C3)cc1 3.12%, CCCC(=O)Nc1nc2ccc(NC(=O)c3c(F)c(F)c(OC)c(F)c3F)cc2s1 3.12%, OC[C@@H]1[C@@H](c2ccc(C#CC3(O)CCCC3)cc2)[C@H]2CN(Cc3ccccc3F)CCCCN12 0%, CC(C)(C)c1ccccc1NC(=O)CN1C(=O)NC2(CCCCCC2)C1=O 1.61%, CC(C)CC#Cc1ccc([C@H]2[C@H](CO)N3C(=O)CN(C(=O)Nc4cc(F)ccc4F)C[C@@H]23)cc1 3.12%, CCOC1=C2[C@@H](CN(S(=O)(=O)c3ccc(C)cc3)[C@H]2c2ccc(Cl)cc2)[C@H]2C(=O)N(c3ccccc3)C(=O)[C@H]2C1 20%, Cc1cc(Cl)cc(C)c1OCCn1ccnc1 6.46%, CC(C)C#Cc1ccc([C@@H]2[C@@H](CO)N3C(=O)CN(S(=O)(=O)c4ccccc4)C[C@@H]23)cc1 15.8%, Oc1ccc2ccccc2c1/C=C/c1ccc2c(Br)cc(Br)c(O)c2n1 23.3%, Cc1cc(-c2ccccc2)nc(N(C)NC(=O)C2CC2)c1S(C)(=O)=O -3.33%, O=C1NC(=Nc2ccc(O)cc2)S/C1=C/c1ccco1 -4.74%, COc1ccc(OC)c(Nc2cc(C)nc3ccc(C)cc23)c1 -17.9%, COCCCN=C1NN=C(c2cc(C)n(Cc3ccco3)c2C)CS1 7.42%, Cc1ccc(S(=O)(=O)N2CCOCC2)cc1NC(=O)CSc1n[nH]c(N)n1 -3.12%, Cc1cccc(S(=O)(=O)N2C[C@H]3[C@@H](c4ccccc42)[C@H](CO)N3CC2CCCC2)c1 6.46%, CCN(CC)CCn1nc2c3c(cccc3c1=O)-c1ccccc1-2 -16.2%, C[C@@H]1CN([C@@H](C)CO)C(=O)c2cc(NC(=O)Nc3cccc4ccccc34)ccc2O[C@@H](C)CCCCO[C@@H]1CN(C)Cc1ccc2c(c1)OCO2 3.57%, CCCCC(=NCCc1c(C)[nH]c2ccc(OC)cc12)C1=C(O)CC(c2ccccc2)CC1=O (stereo unspecified) -17.9%, COc1ccc(/C=C2/CCCc3ccccc3C2=O)cc1 -23.3%, Cn1cccc1/C=C1\SC(=Nc2ccccc2)NC1=O -16.7%, COc1cc(C#Cc2ccc3cc(CCCO)oc(=O)c3c2)cc(OC)c1 -20%, Cc1nn(C2CCS(=O)(=O)C2)c2nc(C3CC3)cc(C(=O)Nc3cccc(C#N)c3)c12 (stereo unspecified) 5.42%, Cc1cccc(NC(=S)N/N=C/c2cccc(O)c2)c1C 0%, O=c1cnc2ccccc2n1CC1CCCCC1 3.33%, COc1ccc(OC)c(C(=O)Cn2nnc(-c3ccc(N4CCOCC4)cc3)n2)c1 0%, COc1ccc(-c2oc3ccc(-c4cc(OC)c(OC)c(OC)c4)cc3c2C#Cc2ccccn2)cc1 6.46%, Cc1ccc(Nc2nc(-c3sc(C)nc3C)cs2)cc1 -14.7%, COc1ccccc1OCC(O)CN1C(=O)NC(C)(C)C1=O (stereo unspecified) 20%, CCOC(=O)c1ccc(N2CCOCC2)c(NC(=O)c2c(-c3ccccc3)noc2C)c1 0%, O=S(=O)(Nc1cc(Sc2cccc3cccnc23)c(O)c2ccccc12)c1ccccc1 26%, Cc1cc(C)cc(C(=O)NCC(=O)OCc2cc([N+](=O)[O-])cc3c2OCOC3)c1 1.61%
